In assay [1] the target is T1, Windpipe (Wdp), untagged (Drosophila) (UniProt Q9W266).
T1 sequence: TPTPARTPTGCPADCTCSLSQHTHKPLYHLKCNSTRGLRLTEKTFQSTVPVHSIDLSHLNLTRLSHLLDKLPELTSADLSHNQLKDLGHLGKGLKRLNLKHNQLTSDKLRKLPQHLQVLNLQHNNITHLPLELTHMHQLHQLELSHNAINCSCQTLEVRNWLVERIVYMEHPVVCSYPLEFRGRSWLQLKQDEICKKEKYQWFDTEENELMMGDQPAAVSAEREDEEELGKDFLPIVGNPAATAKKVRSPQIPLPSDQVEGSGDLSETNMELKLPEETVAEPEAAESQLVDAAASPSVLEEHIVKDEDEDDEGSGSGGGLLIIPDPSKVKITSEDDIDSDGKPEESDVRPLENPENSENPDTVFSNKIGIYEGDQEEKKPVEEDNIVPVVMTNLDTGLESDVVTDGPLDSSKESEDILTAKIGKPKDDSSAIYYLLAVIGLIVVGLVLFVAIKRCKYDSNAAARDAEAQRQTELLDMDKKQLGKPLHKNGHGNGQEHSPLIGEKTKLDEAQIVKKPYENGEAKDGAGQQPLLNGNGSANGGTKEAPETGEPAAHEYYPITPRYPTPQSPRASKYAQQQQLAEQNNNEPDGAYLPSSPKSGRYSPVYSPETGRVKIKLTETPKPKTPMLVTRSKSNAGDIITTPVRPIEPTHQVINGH
In words: co-IP; S2 cells co-transfected with Arm-Gal4, pUAST-dome-HA and pUAST-wdp (with or without V5 tag) or pUAST-V5 control; lysed in RIPA buffer without SDS (50 mM Tris-HCl pH 7.8, 150 mM NaCl, 5 mM EDTA, 0.5% Triton X-100, 0.5% NP-40, 0.5% DOC); antibody 3 h at 4°C, protein G beads overnight at 4°C; western blot with anti-V5, anti-HA, anti-Wdp. In general terms: A western blot detects proteins with antibodies after separation by electrophoresis.

In assay [2] the target is T2, V5-tagged Windpipe (Wdp) (Drosophila) (UniProt Q9W266).
T2 sequence: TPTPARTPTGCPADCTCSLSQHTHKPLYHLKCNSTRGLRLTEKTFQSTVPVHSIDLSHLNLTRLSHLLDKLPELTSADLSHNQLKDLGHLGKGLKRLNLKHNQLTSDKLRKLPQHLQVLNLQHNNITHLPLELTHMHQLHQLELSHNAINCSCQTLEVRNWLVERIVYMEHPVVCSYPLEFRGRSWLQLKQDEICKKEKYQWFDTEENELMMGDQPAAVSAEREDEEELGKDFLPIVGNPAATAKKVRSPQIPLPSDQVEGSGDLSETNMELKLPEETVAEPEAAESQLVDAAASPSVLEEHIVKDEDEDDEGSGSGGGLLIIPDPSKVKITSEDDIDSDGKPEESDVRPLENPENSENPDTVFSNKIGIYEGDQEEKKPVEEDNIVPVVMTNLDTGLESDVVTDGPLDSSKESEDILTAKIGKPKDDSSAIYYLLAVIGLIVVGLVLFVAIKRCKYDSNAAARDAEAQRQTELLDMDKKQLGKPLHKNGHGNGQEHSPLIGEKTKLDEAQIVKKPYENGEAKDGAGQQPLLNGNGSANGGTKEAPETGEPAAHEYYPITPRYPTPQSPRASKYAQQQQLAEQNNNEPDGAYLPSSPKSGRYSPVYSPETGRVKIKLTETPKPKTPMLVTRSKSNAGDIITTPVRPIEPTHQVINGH
The assay is described as above.

These are yes or no findings as the source states them, for the method shown. Binding seen in cells or lysates may run through a third protein. Some binding calls cover weakened binding; strength is not graded here. Sequences can lack the tags named with a protein.

B1: HA-tagged Domeless (Dome) (receptor, UniProt Q9VWE0 24-1282)
chain: ILDPGWVIPSKVEQLIGGDFNLSCTLNEDYFNGKSAEDCPVEKLYFTGGGRVYRDSKHIRILNNTTILFSDTNAVEQENDYHCMCDEYVINKSKVYVGTRPLLVRDFNCLDYDFQFMVCNFTQPPNTVITKYNISYNTNNDWRYSNTLDCNFDSAPVVTCNLTDDNYKRFSETFYFRLSISNALGHETQPITINHFERLVPARPGQNLTLLNRTESSVCLSWEMPRRSNYNRGLVWQVRVTPQNFEPITRPSWRNHTLTIKDTLCLTELPFAGYNYTLRVRVRANQNNTLWSEPMIYAFATAPAPPRRPPRVTYGSFYVYSSEKAMRFYWEPLEEHELNGPDFRYSISEYRINGTAVDPGLIKVESNSAMIDHWSMSAVHHFLIRSSNSQGLSVNATPMTIGPISNRDFKVREPRNIRSVYHPTNKSYTLSWDPPSDQRELQNYTVFWCVPKPGLQSECEGSIRFAEVASGLHHFTTSPDQLLTLHMAVSANYQSHNTGLHWAICSSDKKDDLAKMEPSIDVATSTSLTVSWSERVCAVILAGYNLTYCQRSAGRPDNCTTVTIDRYTNKHVIQNLVPYTDYSVKMLMYSDSRVSKYSDELVNRTGEAAPSQPRELQLIRVTSDSVELAWKPPLLANGVVRAYEGTFRSLHDNVTDTFRVSASADELVNNEKPITYRLGNLTAFTKYEISVRARTVYPSEPSNVILFSTAIGVPSPPQLYVINNPDQSSRLDWEPPRTPAGRIDFYEISLRDNNASCLTSTILPGRNLSYVMATPRCTSHNPFQLAVRAINVEQHPQLNGADAAEGAVLLMSTNGKGCEARTDALGEEERLQFEAYAANMTAYRLYRSDWGIYGFICTPDTHSVKAMYQTIEVTVAILVLGVIFYLVYKKYRKMSDIGLVLPQGIMETMKKPIDMGGLGLGLGPDSSVSGGIVCTRVDDSPPYTPQDLPHDFSSCGSESSKLLLRTASSSGGGGCVDRDGYDDNHETGPISAVGPPTSYLAMRHGLLVQNDRERERERDREQEREREQQQQQRESEMDREQSCTNGYIKPTQMKSWGGNGPSDNDHTFSVPSTAMTAPMSQPLSQIPLSGYVPVPIPQSRFNPAPVQPFGSPAVPSAATAAAASTFFPPAHLLNMDNYVQASDLHKLKPLVAAPLSQTGGPAFAGSSPATSPPLQLPPVHAASPAAATPKMADIGYTTMEQLQLTGLIKPPLAATVGSPTHAAGGAPGGGNQHSRLQPQINGYVTPQDLNAMAHNRHVL
Turning to B1, the binding entry in assay [1] and in assay [2] was “binds” throughout.

The record behind these values is article PMC4414558.
